Results published in paper doi:10.1101/2022.09.29.510157.
No constants are given. Whether binding was seen depends on the method and setting. Some entries that bind do so weakly or less than the wild type.

Amino acid sequences for entries named in this document (tags omitted).
UniProt Q3MHM5: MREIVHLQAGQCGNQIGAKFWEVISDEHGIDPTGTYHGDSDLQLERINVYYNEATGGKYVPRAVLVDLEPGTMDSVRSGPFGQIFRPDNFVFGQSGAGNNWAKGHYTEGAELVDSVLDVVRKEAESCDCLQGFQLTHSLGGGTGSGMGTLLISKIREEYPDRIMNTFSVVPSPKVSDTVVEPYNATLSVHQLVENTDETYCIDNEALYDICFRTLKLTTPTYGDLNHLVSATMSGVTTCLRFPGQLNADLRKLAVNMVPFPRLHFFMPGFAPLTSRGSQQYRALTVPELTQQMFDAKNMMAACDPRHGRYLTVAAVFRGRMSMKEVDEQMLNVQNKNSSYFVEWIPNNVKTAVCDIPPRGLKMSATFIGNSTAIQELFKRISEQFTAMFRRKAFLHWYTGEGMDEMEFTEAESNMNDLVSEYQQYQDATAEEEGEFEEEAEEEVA
UniProt A0A3Q1LJD6: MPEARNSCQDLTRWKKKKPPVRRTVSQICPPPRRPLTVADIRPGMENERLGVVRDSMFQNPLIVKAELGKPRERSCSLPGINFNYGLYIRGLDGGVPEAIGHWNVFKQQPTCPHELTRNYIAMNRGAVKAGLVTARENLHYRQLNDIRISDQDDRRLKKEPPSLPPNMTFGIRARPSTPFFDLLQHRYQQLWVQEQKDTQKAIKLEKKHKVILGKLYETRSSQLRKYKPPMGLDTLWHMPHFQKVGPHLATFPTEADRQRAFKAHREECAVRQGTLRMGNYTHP

Target: β-tubulin (TUBB4B) (bovine (endogenous in bovine sperm)) (UniProt Q3MHM5)
Assay: cryo-EM structure

binding: binds
Substance: CFAP77 (from UniProt A0A3Q1LJD6 1-284)
